# Reference: paper PMC11763764
# By UniProt entry, the sequences of proteins in these tests, tags left out. Residues count along the entry.
# UniProt Q92673, residues 82-2214: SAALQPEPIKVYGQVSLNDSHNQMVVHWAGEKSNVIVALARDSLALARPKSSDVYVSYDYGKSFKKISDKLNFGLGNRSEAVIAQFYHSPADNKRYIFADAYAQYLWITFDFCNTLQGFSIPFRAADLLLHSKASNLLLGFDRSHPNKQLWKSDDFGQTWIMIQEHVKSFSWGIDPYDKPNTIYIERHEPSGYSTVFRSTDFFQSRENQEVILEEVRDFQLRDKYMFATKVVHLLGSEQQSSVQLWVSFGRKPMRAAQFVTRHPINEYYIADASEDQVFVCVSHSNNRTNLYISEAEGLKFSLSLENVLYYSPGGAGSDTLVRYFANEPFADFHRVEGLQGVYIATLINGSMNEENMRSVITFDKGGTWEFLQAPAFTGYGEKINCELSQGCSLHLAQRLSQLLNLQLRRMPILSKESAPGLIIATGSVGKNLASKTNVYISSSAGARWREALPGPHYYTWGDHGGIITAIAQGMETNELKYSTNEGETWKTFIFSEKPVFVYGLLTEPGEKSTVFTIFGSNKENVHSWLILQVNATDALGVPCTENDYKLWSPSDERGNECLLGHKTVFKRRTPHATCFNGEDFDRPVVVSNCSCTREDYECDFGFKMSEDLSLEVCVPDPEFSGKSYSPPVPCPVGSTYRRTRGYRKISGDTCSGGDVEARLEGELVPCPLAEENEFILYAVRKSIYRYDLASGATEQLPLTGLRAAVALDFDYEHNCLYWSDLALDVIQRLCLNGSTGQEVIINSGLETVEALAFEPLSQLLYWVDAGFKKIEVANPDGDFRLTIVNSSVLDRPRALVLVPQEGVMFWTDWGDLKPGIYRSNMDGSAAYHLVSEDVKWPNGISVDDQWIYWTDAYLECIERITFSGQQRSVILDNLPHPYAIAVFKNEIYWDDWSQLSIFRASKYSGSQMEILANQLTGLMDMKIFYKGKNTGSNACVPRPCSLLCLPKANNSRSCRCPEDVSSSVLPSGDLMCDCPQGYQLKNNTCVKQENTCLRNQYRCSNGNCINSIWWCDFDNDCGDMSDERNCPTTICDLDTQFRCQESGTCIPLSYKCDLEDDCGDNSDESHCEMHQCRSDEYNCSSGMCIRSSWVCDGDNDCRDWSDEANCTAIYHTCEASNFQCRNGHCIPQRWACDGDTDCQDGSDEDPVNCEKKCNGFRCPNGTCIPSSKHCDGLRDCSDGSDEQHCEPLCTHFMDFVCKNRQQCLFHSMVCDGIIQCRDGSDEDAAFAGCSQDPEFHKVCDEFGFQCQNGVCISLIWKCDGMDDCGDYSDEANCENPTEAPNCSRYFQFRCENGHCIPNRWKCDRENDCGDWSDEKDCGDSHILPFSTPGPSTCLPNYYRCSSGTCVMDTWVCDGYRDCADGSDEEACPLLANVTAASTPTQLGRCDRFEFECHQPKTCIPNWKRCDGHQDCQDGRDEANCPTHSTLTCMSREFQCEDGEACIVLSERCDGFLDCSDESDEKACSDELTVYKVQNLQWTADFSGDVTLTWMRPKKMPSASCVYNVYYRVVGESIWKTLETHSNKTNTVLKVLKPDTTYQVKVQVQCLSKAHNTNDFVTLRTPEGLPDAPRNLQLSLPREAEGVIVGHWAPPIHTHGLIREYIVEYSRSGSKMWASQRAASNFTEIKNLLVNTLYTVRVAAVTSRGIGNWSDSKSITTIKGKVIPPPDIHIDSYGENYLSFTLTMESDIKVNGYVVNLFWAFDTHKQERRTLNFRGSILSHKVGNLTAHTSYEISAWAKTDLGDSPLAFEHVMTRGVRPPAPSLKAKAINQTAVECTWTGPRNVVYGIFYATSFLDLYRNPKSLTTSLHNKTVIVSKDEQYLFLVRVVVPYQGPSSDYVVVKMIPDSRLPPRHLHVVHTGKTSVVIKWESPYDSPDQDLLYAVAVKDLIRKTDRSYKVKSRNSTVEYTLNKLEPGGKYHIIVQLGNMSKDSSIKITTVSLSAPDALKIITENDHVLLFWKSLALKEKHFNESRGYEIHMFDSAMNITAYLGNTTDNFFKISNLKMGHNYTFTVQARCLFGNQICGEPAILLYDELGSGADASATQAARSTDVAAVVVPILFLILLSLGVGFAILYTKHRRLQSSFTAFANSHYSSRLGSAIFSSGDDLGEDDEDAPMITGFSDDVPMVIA
# UniProt P22455, residues 22-802: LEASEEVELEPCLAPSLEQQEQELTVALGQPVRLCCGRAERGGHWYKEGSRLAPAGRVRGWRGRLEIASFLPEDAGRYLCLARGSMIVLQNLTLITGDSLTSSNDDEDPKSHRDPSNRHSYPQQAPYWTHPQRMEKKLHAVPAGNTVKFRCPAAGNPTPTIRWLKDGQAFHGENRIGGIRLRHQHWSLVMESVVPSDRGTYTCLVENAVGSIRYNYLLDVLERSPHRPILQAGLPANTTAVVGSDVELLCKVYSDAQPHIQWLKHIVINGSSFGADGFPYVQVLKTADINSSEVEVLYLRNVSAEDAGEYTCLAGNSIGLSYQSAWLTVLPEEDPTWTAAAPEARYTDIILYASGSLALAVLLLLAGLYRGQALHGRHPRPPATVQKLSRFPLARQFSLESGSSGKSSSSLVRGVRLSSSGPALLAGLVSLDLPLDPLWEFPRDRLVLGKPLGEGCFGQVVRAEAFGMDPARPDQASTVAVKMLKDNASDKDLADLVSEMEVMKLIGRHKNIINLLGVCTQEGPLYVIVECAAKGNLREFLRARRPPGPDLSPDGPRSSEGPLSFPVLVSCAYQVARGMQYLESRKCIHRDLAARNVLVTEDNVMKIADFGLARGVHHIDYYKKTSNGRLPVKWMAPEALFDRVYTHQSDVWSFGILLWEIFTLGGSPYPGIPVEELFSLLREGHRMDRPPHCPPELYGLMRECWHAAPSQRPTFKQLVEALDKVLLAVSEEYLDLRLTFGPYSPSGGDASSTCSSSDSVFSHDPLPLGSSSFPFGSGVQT
# No constants are given. Whether binding was seen depends on the method and setting. In cells and extracts the contact can be indirect. Some results given as binding are weak or reduced against the parent protein; the word gives no strength.
# Key:
# [1] = target: sortilin-related receptor 1 (SORL1) (human (endogenous in KRCH31)) (UniProt Q92673); test: proximity ligation; Duolink In Situ Red on fixed cells (4% paraformaldehyde); mouse anti-SORL1 with rabbit anti-EGFR or rabbit anti-FGFR4; confocal microscopy
# [2] = target: sortilin-related receptor 1 (SORL1) (human (endogenous in KRCH31)) (UniProt Q92673); test: co-IP; KRCH31 protein lysate (500 uL, 1 ug/uL) on antibody-loaded Protein G magnetic beads, 1 h at room temperature, washed with PBST, Western blot of the IP products
binding [1],binding [2],Substance
binds,binds,epidermal growth factor receptor (EGFR) (from UniProt P00533 25-1210)
binds,binds,fibroblast growth factor receptor 4 (FGFR4) (from UniProt P22455 22-802)
